In the supplement of paper PMC10849652 one finds log2 fold change data, which are given here for 34 targets.

Chains of the proteins cited; added tags and fusions are not shown. Lines headed by an entry give the natural chain unless they say otherwise; changes in a name come on top.
UniProt Q96R06: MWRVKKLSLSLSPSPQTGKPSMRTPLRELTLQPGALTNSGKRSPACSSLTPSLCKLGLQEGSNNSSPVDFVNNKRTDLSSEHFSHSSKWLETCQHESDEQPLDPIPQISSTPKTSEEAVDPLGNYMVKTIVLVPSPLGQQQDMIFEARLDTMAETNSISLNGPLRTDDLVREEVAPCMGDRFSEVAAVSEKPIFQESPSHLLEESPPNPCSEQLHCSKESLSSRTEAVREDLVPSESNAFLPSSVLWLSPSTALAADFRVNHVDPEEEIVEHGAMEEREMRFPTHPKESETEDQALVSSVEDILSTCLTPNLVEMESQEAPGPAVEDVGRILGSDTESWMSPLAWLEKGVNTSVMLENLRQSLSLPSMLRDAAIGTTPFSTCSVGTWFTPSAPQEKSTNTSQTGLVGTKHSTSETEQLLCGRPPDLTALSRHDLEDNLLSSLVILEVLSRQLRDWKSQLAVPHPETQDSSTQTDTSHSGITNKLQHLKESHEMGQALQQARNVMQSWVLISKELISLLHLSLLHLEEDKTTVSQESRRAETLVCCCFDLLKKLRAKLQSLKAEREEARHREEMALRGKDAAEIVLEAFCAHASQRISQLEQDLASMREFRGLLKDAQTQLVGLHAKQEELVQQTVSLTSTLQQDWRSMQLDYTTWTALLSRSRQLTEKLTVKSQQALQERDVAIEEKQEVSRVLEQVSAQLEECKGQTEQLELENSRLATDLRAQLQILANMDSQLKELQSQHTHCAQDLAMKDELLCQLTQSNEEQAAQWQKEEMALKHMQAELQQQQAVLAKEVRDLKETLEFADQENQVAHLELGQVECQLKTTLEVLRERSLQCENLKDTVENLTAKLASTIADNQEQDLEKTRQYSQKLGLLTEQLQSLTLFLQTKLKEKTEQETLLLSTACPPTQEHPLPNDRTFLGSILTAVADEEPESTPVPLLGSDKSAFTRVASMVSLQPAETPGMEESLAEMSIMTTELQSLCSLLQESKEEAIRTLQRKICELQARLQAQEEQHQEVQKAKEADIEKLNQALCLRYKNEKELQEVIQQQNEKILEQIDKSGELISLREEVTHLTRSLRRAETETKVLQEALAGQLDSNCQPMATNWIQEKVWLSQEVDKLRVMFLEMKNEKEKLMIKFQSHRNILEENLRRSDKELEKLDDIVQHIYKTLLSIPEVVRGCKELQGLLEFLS
UniProt Q96GM5, whole entry, looked up: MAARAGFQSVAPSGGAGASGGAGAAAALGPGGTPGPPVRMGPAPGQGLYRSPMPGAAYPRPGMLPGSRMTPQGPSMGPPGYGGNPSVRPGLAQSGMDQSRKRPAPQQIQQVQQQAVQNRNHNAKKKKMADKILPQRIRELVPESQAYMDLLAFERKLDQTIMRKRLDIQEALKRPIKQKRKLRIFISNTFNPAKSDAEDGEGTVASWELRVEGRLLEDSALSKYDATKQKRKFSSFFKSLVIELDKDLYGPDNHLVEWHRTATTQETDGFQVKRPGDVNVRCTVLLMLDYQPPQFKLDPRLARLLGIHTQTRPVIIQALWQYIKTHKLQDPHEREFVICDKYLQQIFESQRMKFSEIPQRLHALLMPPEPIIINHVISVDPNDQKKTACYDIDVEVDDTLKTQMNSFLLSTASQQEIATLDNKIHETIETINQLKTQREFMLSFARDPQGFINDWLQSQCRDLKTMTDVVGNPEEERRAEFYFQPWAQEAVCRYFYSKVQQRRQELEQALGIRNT
UniProt P57768: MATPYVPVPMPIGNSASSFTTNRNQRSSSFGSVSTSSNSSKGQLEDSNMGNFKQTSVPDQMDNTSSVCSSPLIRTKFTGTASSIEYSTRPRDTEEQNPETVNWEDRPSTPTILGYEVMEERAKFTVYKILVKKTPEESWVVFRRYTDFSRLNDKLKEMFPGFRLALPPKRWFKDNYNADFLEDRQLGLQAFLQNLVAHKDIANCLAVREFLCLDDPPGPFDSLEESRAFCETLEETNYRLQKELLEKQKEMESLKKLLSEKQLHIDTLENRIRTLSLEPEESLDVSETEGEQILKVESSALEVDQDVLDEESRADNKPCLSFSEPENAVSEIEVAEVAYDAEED
UniProt Q96EX1: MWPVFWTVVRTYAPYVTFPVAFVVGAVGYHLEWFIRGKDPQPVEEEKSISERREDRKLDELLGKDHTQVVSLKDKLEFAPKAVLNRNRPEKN
UniProt O60749: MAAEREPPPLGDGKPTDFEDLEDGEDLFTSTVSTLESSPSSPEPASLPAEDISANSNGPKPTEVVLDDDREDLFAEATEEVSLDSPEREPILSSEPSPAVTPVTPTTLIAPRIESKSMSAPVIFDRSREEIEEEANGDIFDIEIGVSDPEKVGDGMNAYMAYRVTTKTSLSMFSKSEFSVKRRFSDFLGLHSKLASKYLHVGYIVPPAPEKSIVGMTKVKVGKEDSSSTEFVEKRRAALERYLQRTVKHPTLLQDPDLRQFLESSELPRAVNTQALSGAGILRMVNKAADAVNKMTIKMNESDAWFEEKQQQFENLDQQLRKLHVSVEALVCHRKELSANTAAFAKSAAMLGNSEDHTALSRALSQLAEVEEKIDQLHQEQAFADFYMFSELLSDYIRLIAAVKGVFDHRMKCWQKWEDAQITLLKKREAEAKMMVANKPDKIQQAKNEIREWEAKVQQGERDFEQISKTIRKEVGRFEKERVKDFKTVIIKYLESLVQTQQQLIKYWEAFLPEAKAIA
UniProt Q13573: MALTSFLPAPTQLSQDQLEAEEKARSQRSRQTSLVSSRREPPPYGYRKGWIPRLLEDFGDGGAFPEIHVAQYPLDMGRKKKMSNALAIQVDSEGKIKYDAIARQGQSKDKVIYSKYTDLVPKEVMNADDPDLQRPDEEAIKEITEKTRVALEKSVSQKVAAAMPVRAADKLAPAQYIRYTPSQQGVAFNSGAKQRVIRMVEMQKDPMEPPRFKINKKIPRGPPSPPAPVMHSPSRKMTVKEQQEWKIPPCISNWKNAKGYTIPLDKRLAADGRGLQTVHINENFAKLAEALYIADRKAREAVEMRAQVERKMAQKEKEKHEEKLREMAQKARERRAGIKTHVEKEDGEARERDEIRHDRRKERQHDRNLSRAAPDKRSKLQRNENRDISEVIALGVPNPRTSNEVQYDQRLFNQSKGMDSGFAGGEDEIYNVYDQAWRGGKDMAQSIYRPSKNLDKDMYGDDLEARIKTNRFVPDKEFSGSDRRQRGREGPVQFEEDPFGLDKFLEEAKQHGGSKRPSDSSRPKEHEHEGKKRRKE
UniProt Q9UPR3: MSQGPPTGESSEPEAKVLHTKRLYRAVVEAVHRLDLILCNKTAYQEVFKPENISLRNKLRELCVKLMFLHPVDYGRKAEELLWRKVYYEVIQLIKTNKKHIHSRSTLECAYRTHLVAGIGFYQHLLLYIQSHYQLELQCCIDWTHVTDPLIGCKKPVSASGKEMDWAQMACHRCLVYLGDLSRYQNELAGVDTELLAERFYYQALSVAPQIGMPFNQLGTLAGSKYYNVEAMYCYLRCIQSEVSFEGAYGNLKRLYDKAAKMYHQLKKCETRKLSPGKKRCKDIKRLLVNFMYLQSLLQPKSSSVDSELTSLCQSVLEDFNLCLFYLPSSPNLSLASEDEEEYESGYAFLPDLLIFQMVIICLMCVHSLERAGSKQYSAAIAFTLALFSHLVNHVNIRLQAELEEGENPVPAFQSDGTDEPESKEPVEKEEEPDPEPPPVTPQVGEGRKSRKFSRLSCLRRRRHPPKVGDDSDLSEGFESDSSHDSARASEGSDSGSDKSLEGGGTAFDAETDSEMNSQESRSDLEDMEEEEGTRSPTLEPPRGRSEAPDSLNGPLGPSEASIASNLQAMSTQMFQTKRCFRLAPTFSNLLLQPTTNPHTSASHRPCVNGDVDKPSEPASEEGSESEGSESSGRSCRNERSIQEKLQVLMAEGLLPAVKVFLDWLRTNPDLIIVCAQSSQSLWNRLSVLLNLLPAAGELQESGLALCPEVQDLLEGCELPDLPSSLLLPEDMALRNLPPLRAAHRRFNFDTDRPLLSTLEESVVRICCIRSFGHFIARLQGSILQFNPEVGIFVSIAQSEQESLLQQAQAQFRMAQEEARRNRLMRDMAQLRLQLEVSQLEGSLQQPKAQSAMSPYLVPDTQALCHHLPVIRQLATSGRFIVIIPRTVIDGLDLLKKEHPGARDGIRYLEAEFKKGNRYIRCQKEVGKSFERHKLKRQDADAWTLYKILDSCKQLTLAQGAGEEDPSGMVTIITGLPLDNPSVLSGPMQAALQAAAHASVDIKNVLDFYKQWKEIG
UniProt Q8IY18: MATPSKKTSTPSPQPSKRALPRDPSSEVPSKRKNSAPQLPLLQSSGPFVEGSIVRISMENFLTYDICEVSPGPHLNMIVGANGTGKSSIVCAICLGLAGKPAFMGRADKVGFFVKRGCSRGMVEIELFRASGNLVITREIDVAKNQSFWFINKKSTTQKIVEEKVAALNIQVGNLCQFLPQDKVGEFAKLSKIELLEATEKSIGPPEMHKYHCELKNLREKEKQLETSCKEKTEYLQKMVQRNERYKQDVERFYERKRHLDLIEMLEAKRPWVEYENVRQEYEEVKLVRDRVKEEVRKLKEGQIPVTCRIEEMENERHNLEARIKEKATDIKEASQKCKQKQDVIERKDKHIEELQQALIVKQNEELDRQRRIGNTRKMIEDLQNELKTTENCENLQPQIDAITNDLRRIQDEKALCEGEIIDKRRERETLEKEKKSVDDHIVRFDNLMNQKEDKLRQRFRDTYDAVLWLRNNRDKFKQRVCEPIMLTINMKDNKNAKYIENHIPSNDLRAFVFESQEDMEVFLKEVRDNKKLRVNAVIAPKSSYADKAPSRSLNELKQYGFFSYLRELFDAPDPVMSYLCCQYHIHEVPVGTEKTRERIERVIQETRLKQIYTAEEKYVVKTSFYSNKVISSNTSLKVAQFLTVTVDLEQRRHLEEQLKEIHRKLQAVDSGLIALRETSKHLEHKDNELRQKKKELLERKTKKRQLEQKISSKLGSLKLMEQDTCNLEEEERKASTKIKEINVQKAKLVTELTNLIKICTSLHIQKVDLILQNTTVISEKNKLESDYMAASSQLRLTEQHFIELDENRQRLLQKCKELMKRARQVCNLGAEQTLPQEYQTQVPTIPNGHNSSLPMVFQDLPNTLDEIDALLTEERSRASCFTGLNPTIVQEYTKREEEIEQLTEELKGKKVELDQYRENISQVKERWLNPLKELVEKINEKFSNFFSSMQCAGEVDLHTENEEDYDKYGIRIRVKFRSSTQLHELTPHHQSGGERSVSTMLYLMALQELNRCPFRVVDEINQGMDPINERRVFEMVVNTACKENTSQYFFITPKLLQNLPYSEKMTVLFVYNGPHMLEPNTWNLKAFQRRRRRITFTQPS
UniProt Q14683: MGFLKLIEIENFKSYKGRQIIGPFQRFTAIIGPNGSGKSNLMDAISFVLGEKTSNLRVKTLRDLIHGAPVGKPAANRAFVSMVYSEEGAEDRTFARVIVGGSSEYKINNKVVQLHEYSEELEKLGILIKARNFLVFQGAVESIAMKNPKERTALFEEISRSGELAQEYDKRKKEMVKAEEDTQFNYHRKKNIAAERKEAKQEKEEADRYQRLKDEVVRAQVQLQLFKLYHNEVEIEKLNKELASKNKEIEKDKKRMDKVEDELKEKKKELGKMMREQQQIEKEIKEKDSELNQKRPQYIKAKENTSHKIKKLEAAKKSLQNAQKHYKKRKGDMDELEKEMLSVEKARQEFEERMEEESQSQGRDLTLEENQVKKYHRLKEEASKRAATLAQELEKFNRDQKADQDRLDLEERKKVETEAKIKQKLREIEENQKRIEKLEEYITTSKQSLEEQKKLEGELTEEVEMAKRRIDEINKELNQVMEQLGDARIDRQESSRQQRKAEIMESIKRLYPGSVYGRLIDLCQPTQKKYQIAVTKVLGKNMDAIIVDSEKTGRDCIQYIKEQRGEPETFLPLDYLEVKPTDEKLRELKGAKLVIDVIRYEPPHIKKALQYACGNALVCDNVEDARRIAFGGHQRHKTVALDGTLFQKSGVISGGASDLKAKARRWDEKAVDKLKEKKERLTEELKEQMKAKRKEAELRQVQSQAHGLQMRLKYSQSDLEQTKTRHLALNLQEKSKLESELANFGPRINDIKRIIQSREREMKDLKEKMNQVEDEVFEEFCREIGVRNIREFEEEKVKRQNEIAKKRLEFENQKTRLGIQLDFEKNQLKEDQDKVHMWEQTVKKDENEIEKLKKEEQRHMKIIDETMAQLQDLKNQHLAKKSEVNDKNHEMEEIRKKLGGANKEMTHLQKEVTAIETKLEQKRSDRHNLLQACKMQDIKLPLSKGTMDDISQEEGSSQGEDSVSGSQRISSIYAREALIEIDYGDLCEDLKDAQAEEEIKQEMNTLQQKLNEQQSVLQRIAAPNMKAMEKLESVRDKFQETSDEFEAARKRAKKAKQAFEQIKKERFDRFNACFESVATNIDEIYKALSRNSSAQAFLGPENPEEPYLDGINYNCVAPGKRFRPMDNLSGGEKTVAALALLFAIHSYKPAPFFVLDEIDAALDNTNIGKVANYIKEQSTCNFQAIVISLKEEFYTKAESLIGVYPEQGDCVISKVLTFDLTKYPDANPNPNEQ

This is one part of the list.

Compound in this test: c1cn2cc(-c3ccc4cn[nH]c4c3)nc(Nc3ccc(N4CCOCC4)cc3)c2n1 [entospletinib]
Put plainly: log2 fold change, soluble protein after heating vs DMSO (PISA); higher = thermal stabilisation; K562 lysate, 10 uM; active = over 0.2 and 3.5 SD of the protein, either way, in both replicates (recomputed). The method, boiled down: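 Soluble protein was defined as the supernatant remaining after 21,000xg for 90 min, following pooling of heated aliquots and adjustment to 0.5% NP-40 at 4°C. Before that, crude K562 extract at 1 mg/mL protein in PBS pH 7.4 with 1 mM MgCl2 was treated with 10 μM compound for 30 min and heated for 3 min across 48°C-58°C. Quantification used TMTpro 16plex LC-MS/MS with channel sums equalised, and values are log-two fold changes in thermal stability relative to solvent controls from duplicates.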
Take SMARCD2 (UniProt Q92925): the log2 fold change was inactive: -0.01.

Take SNRNP200 (UniProt O75643): the log2 fold change is inactive: 0.014.

Take SPARC (UniProt P09486): the log2 fold change was inactive: -0.063.

As to SNTA1 (UniProt Q13424), the log2 fold change is inactive: 0.018.

Consider SNRPB isoform 3 (UniProt P14678), for which the log2 fold change is inactive: -0.007.

With SNX6, A0A0A0MRI2, the log2 fold change was inactive: 0.003.

Consider SNUPN (UniProt O95149), for which the log2 fold change is inactive: -0.066.

Turning to SPAG5 (UniProt Q96R06), the log2 fold change was inactive: 0.008.

As to SMIM8 (UniProt Q96KF7), the log2 fold change is inactive: -0.046.

Consider SNRNP48 (UniProt Q6IEG0), for which the log2 fold change is inactive: 0.127.

Regarding SMARCD1 (UniProt Q96GM5), the log2 fold change was inactive: -0.019.

On to SNX16 (UniProt P57768), for which the log2 fold change is inactive: 0.029.

With SNX9 (UniProt Q9Y5X1), the log2 fold change was inactive: 0.004.

Consider SMIM12 (UniProt Q96EX1), for which the log2 fold change is inactive: -0.058.

With SP4 (UniProt Q02446), the log2 fold change was inactive: -0.028.

Regarding SNX8 (UniProt Q9Y5X2), the log2 fold change is inactive: 0.022.

Consider SMARCC1 (UniProt Q92922), for which the log2 fold change is inactive: -0.014.

Regarding SOS1 (UniProt Q07889), the log2 fold change was inactive: 0.

SOX5 (UniProt P35711): the log2 fold change was inactive: -0.083.

With SNRPG (UniProt P62308), the log2 fold change was inactive: -0.001.

As to SNX2 isoform 2 (UniProt O60749), the log2 fold change is inactive: 0.052.

Turning to SMARCE1 (UniProt Q969G3), the log2 fold change was inactive: 0.

As for SORD (UniProt Q00796), the log2 fold change is inactive: -0.003.

In the case of SNW1 (UniProt Q13573), the log2 fold change was inactive: 0.009.

Regarding SMC2 (UniProt O95347), the log2 fold change was inactive: 0.009.

Take SMG8 isoform 2 (UniProt Q8ND04): the log2 fold change was inactive: -0.021.

SMG5 (UniProt Q9UPR3): the log2 fold change was inactive: -0.023.

Turning to SMS (UniProt P52788), the log2 fold change is inactive: -0.012.

As to SNCA (UniProt P37840), the log2 fold change was inactive: -0.126.

For SNRPD2 (UniProt P62316), the log2 fold change was inactive: 0.001.

Take SNAPIN (UniProt O95295): the log2 fold change is inactive: -0.057.

Turning to SMC5 (UniProt Q8IY18), the log2 fold change was inactive: -0.015.

On to SMC1A (UniProt Q14683), for which the log2 fold change was inactive: 0.002.

As to SOAT1 (UniProt P35610), the log2 fold change is inactive: 0.015.
